Data published in PubChem BioAssay AID248 (DTP/NCI, 2004).
The list does not hold the whole screen: it gathers tests that were run many times, whatever their T/C, doses with no T/C, and many T/C values between a quarter and a half above the control. Further doses and runs are listed elsewhere. T/C is the treated group as % of the vehicle group. Some entries give survivors of the animals treated and no T/C: the source files T/C as zero there, which appears to mark a toxic dose or a test without result, not a measured value. Some doses without a T/C left all or most animals alive at the check, yet need not have been tolerated: the source hardly ever lists a survival T/C far under the control, and the zero likely stands for such cases as well. Counts of survivors are from the toxicity check (mostly the fifth day) where no day follows; animals may have died later. Schedule codes are those of the source, taken here to give the interval after Q, in days (D) or hours (H), and the number of doses after X. Some entries hold several experiments; the results are listed from low to high. For survival time, this PubChem deposit counts one and a half times the control or more as active, and values a quarter to a half above the control carry no call in these data; other NCI protocols may use other cut-offs. Some T/C values carry the count of animals alive at the toxicity check (mostly the fifth day); where none is given, no animal had died by that day.

System: L1210 leukemia ip in BDF1 mice, survival T/C
Assay: NCI In Vivo Anticancer Drug Screen. Data for tumor model L1210 Leukemia (intraperitoneal) in B6D2F1 (BDF1) mice
Conditions: T/C endpoint: mean survival time, higher T/C = longer survival
[1] = dose: 200.0 mg/kg/injection, schedule: Q01DX001 (ip), vehicle: carboxymethylcellulose (CMC)
[2] = dose: 400.0 mg/kg/injection, schedule: Q01DX001 (ip), vehicle: carboxymethylcellulose (CMC)
[3] = dose: 100.0 mg/kg/injection, schedule: Q01DX001 (ip), vehicle: saline
[4] = dose: 200.0 mg/kg/injection, schedule: Q01DX001 (ip), vehicle: saline
[5] = dose: 400.0 mg/kg/injection, schedule: Q01DX001 (ip), vehicle: saline
[6] = dose: 300.0 mg/kg/injection, schedule: Q01DX001 (ip), vehicle: saline
[7] = dose: 300.0 mg/kg/injection, schedule: Q01DX001 (ip), vehicle: other
[8] = dose: 400.0 mg/kg/injection, schedule: Q01DX009 (ip), vehicle: Klucel (hydroxypropylcellulose) (HPC)
[9] = dose: 150.0 mg/kg/injection, schedule: Q01DX001 (ip), vehicle: saline
[10] = dose: 400.0 mg/kg/injection, schedule: Q04DX003 (ip), vehicle: Klucel (hydroxypropylcellulose) (HPC)
[11] = dose: 100.0 mg/kg/injection, schedule: Q04DX003 (ip), vehicle: Klucel (hydroxypropylcellulose) (HPC)
[12] = dose: 200.0 mg/kg/injection, schedule: Q04DX003 (ip), vehicle: Klucel (hydroxypropylcellulose) (HPC)

COc1cc(C=Nc2cc(Cl)c(OC)c(Cl)c2)ccc1N(CCCl)CCCl
T/C (dose: 39.0 mg/kg/injection, schedule: Q01DX001 (ip), vehicle: carboxymethylcellulose (CMC)): 125 % of control | T/C (dose: 59.0 mg/kg/injection, schedule: Q01DX001 (ip), vehicle: carboxymethylcellulose (CMC)): 137 % of control | survivor count (dose: 60.0 mg/kg/injection, schedule: Q01DX009 (ip), vehicle: carboxymethylcellulose (CMC)): 5 of 6 | T/C (dose: 66.0 mg/kg/injection, schedule: Q01DX001 (ip), vehicle: carboxymethylcellulose (CMC)): 133 % of control | T/C (dose: 89.0 mg/kg/injection, schedule: Q01DX001 (ip), vehicle: carboxymethylcellulose (CMC)): 130 and 148 % of control | survivor count (dose: 90.0 mg/kg/injection, schedule: Q01DX009 (ip), vehicle: carboxymethylcellulose (CMC)): 6 of 6 | T/C (dose: 100.0 mg/kg/injection, schedule: Q01DX001 (ip), vehicle: carboxymethylcellulose (CMC), evaluated on day 30): 138 % of control | T/C (dose: 100.0 mg/kg/injection, schedule: Q01DX001 (ip), vehicle: carboxymethylcellulose (CMC), run until all animals had died): 134 % of control | T/C (dose: 133.0 mg/kg/injection, schedule: Q01DX001 (ip), vehicle: carboxymethylcellulose (CMC)): 139 % of control | T/C [1]: 130 and 142 % of control | T/C (dose: 338.0 mg/kg/injection, schedule: Q01DX001 (ip), vehicle: carboxymethylcellulose (CMC)): 134 % of control [5 of 6 alive] | T/C [2]: 134 % of control

C[N+](C)(C)Cc1ccc2ccccc2c1Br
survivor count [3]: 3 of 6 | survivor count [4]: 0 of 6 | survivor count [5]: 0 of 6

C=COC(=O)NC(C(=O)O)C(C)CC (stereo not drawn)
survivor count [6]: 0 of 6

CCCCCCCCN(CC)CC
survivor count [5]: 2 of 4

Cc1cc(S(=O)(=O)c2ccccc2)c(C)s1
survivor count [5]: 0 of 6

C/C(CCCC(C)(C)C(=O)O)=N/Nc1ccc([N+](=O)[O-])cc1[N+](=O)[O-]
survivor count (dose: 150.0 mg/kg/injection, schedule: Q01DX001 (ip), vehicle: other): 0 of 6 | survivor count [7]: 1 of 6

Cc1nnc(NS(=O)(=O)c2ccc(N=Nc3c(N)nc(N)[nH]c3=O)cc2)s1
survivor count (dose: 80.0 mg/kg/injection, schedule: Q01DX001 (ip), vehicle: saline): 3 of 6 | survivor count [3]: 0 of 6 | survivor count [4]: 1 of 6 | survivor count [5]: 2 of 6

COc1cc(/C=C2\NC(=O)NC2=O)ccc1O
survivor count (dose: 100.0 mg/kg/injection, schedule: Q01DX009 (ip), vehicle: saline with Tween-80): 6 of 6

CN(C)c1ncnc2[nH]cc([N+](=O)[O-])c12
survivor count [2]: 2 of 4

CCCCCCNC(=O)NC
survivor count [8]: 0 of 6

CC[N+](CC)(CC)CCCCCCCCCC[N+](CC)(CC)CC
survivor count (dose: 1.56 mg/kg/injection, schedule: Q04DX003 (ip), vehicle: saline): 1 of 6 | survivor count (dose: 3.12 mg/kg/injection, schedule: Q04DX003 (ip), vehicle: saline): 0 of 6 | survivor count (dose: 6.25 mg/kg/injection, schedule: Q04DX003 (ip), vehicle: saline): 1 of 6 | survivor count (dose: 100.0 mg/kg/injection, schedule: Q04DX003 (ip), vehicle: water): 0 of 6 | survivor count (dose: 200.0 mg/kg/injection, schedule: Q04DX003 (ip), vehicle: water): 0 of 6 | survivor count (dose: 400.0 mg/kg/injection, schedule: Q04DX003 (ip), vehicle: water): 0 of 6

CC(C)C1CCC(N)CC1 (stereo not drawn)
survivor count [9]: 0 of 6 | survivor count [6]: 0 of 6

Cc1nc(N)[nH]c(=O)c1CCCCC#N
survivor count [8]: 2 of 3

CS(=O)(=O)OCCBr
survivor count [1]: 0 of 6 | survivor count [2]: 0 of 6

CCC[CH2][Sn]1([CH2]CCC)[O]OC(c2ccc(OC)cc2)[O]1 (stereo not drawn)
survivor count (dose: 25.0 mg/kg/injection, schedule: Q01DX005 (sc), vehicle: olive oil, sesame oil, peanut oil): 3 of 3 | survivor count (dose: 25.0 mg/kg/injection, schedule: Q01DX009 (sc), vehicle: olive oil, sesame oil, peanut oil): 5 of 6 and 3 of 3 | survivor count (dose: 50.0 mg/kg/injection, schedule: Q01DX005 (sc), vehicle: olive oil, sesame oil, peanut oil): 3 of 3 | survivor count (dose: 100.0 mg/kg/injection, schedule: Q01DX005 (sc), vehicle: olive oil, sesame oil, peanut oil): 3 of 3

Cc1cc(C)nc(NC(=O)COc2ccc(Cl)cc2)c1
survivor count [10]: 3 of 6

CCCCCCCCCCCCSCCOC(=O)C1C2CCC(O2)C1C(=O)O (stereo not drawn)
survivor count [11]: 0 of 6 | survivor count [12]: 0 of 6 | survivor count [10]: 0 of 6

O=C(O)c1ccccc1-c1ccccc1C(=O)Nc1ccc2c(c1)Cc1cc(F)ccc1-2
survivor count (dose: 300.0 mg/kg/injection, schedule: Q01DX001 (ip), vehicle: carboxymethylcellulose (CMC)): 0 of 6

COc1ccc(CCNCC(O)CSc2cccc(C)c2)cc1OC (stereo not drawn)
survivor count [6]: 0 of 6

O=C(O)C1Cc2ccccc2CN1 (stereo not drawn)
survivor count (dose: 200.0 mg/kg/injection, schedule: Q01DX009 (ip), vehicle: saline with Tween-80): 0 of 6 | survivor count (dose: 400.0 mg/kg/injection, schedule: Q01DX009 (ip), vehicle: saline with Tween-80): 0 of 6

CCCCOP(=O)(N1CC1C)N1CC1C (stereo not drawn)
T/C (dose: 66.0 mg/kg/injection, schedule: Q01DX001 (ip), vehicle: saline): 143 % of control | survivor count (dose: 110.0 mg/kg/injection, schedule: Q04DX003 (ip), vehicle: acetone): 5 of 6 | T/C (dose: 170.0 mg/kg/injection, schedule: Q04DX003 (ip), vehicle: acetone): 142 % of control | survivor count (dose: 255.0 mg/kg/injection, schedule: Q04DX003 (ip), vehicle: acetone): 6 of 6

CC1=C(C)C2(C)C1(C)C1(C)C(C)=C(C)C21C (stereo not drawn)
survivor count (dose: 400.0 mg/kg/injection, schedule: Q01DX009 (ip), vehicle: acetone): 6 of 6

CCOC(=O)c1cc(-c2ccccc2)c(-c2ccccc2)c(-c2ccccc2)c1-c1ccccc1
survivor count [2]: 2 of 4

CCCCCCCCCCCC[N+](C)(C)Cc1ccccc1 (tested in a mixture with another compound)
survivor count (dose: 16.0 mg/kg/injection, schedule: Q01DX015 (ip), vehicle: saline): 1 of 6

CC(=O)N(C)c1cc2c3c(c1)CCCN3CCC2
survivor count (dose: 200.0 mg/kg/injection, schedule: Q01DX009 (ip), vehicle: Klucel (hydroxypropylcellulose) (HPC)): 3 of 6

NC(=O)C(Br)c1ccccc1 (stereo not drawn)
survivor count [10]: 0 of 6

[Cl][Rh][Cl].c1cn[nH]c1.c1cn[nH]c1.c1cn[nH]c1.c1cn[nH]c1
survivor count (dose: 50.0 mg/kg/injection, schedule: Q01DX009 (ip), vehicle: Klucel (hydroxypropylcellulose) (HPC)): 5 of 6 | survivor count [11]: 2 of 6 | survivor count [12]: 0 of 6 | survivor count [10]: 0 of 6

CCCCCCCCCCCCOP(=S)(S)OCCCCCCCCCCCC.[Cd]
survivor count (dose: 25.0 mg/kg/injection, schedule: Q04DX002 (ip), vehicle: saline with Tween-80): 1 of 3 | survivor count (dose: 200.0 mg/kg/injection, schedule: Q04DX002 (ip), vehicle: saline with Tween-80): 3 of 3 | survivor count (dose: 400.0 mg/kg/injection, schedule: Q04DX002 (ip), vehicle: saline with Tween-80): 0 of 3

CCOC(=O)CN1N=C([P+](c2ccccc2)(c2ccccc2)c2ccccc2)CC1(c1ccccc1)c1ccccc1
survivor count (dose: 75.0 mg/kg/injection, schedule: Q01DX001 (ip), vehicle: saline): 2 of 6 | survivor count [9]: 2 of 6 | survivor count [6]: 2 of 6

CC1CC(C)CC(C(O)C2CCCCC2)C1 (stereo not drawn)
survivor count [7]: 1 of 6

c1ccc2c(c1)ccc1[s+]cccc12
survivor count (dose: 400.0 mg/kg/injection, schedule: Q04DX003 (ip), vehicle: acetone): 0 of 6

CCCCCCN1CCCC(OC(=O)N(C)C)C1 (stereo not drawn)
survivor count (dose: 200.0 mg/kg/injection, schedule: Q04DX002 (ip), vehicle: saline): 0 of 3 | survivor count (dose: 400.0 mg/kg/injection, schedule: Q04DX002 (ip), vehicle: saline): 0 of 3
